Results on 30 compounds are retold here after the supplement of paper PMC12889115.

The test system of this assay is Salmonella enterica serovar Typhimurium SL1344. Briefly: bacterial growth OD600 after 18 h with compound and polymyxin B; higher = more bacterial growth (less inhibition). To be noted: 50 µM, Mueller-Hinton broth.

The other results are listed elsewhere or left out. Values are raw readings; no control value is given beside them.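 First-pass screen: polymyxin B was added at a level that permeabilizes the Salmonella outer membrane while sparing the inner membrane. DMSO wells, with and without polymyxin B, defined maximum growth. Because plates differed from one another, each plate's data were ranked separately and the compounds with the lowest OD600 were carried forward as hits.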

With `CCN1CCN(C2(C(=O)NCCCn3ccnc3C)Cc3ccccc3C2)CC1`, the “bacterial growth OD600” value (polymyxin B 0.75 µg/mL) was determined as 0.935. For the compound `O=C(c1ccc(Oc2ccccc2)cc1)C1CCCN(C(=O)CCN2CCCCC2=O)C1` (stereo not given), the “bacterial growth OD600” value (polymyxin B 1 µg/mL) amounted to 0.021. As to `O=C(NCC1CCCN(Cc2cccc3c2OCO3)C1)c1cc2ccccc2[nH]1` (stereo not given), where the note is “polymyxin B 0.75 µg/mL”, the “bacterial growth OD600” value was determined as 0.712. In the case of `CC(=O)Nc1ccnn1C1CCN(Cc2cccc(OC3CCCC3)c2)CC1`, the “bacterial growth OD600” value (polymyxin B 1 µg/mL) turned out to be 1.06. Regarding `O=C(CCn1cccn1)N1CCCC(CCc2ccc(F)c(F)c2)C1` (stereo not given), the “bacterial growth OD600” value (polymyxin B 0.75 µg/mL) was determined as 0.475. Same read-out and setting: the result for `CCC(=O)N[C@@H]1c2ccccc2C2(CCN(Cc3cc(F)cc(F)c3)CC2)[C@H]1OCCOC` reads 0.908. For `COc1ccc(C(=O)N(C)C2CCCN(CCc3ccccc3)C2)cc1OC` (stereo not given), where the note is “polymyxin B 1 µg/mL”, the “bacterial growth OD600” value was 0.994.

As to `COCc1ccc(CN2CCc3c(C(=O)N4CCCCC4C(=O)OC)c(OC)cc(=O)n3CC2)o1` (stereo not given), the “bacterial growth OD600” value (polymyxin B 0.75 µg/mL) amounted to 0.835.

Take `CCc1ccc(CN2CCc3c(C(=O)NCc4ccccc4OC)c(OC)cc(=O)n3CC2)o1`: the “bacterial growth OD600” value (polymyxin B 0.75 µg/mL) came out at 0.785. Turning to `Cc1cccc(C(=O)N2CCCC(N3CCN(c4cccc(Cl)c4)CC3)C2)c1` (stereo not given), for the setting “polymyxin B 1 µg/mL”, the “bacterial growth OD600” value is 0.877. Still for that read-out and setting: in the case of `COc1cccc(CN2C[C@@H]3C[C@@H](c4ccc(OC)c(C)c4)N4CCC[C@@]34C2=O)c1` it was 1.09; in that of `CCCNC(=O)N1CCCC1C(=O)Nc1ccccc1-c1ccc(OC)cc1` (stereo not given), 0.845.

As for `CC(C)(C)NC(=O)NC1CC(=O)N(Cc2ccccc2C(F)(F)F)C1` (stereo not given), where the note is “polymyxin B 1 µg/mL”, the “bacterial growth OD600” value amounted to 0.725. As to `Cc1c(CN2C[C@H]3OC(=O)N(CCc4ccc(F)cc4)[C@H]3C2)cnn1C`, the “bacterial growth OD600” value (polymyxin B 0.75 µg/mL) was found to be 0.835. As for `CC(C)c1noc(CN(C)c2ccc(-c3nc(C(C)C)no3)cn2)n1`, the “bacterial growth OD600” value (polymyxin B 0.75 µg/mL) amounted to 0.526.

Consider `CC(c1ccon1)N(C)C(=O)CC1(c2ccccc2)CC(=O)N(Cc2ccc3c(c2)OCO3)C1=O` (stereo not given), for which the “bacterial growth OD600” value (polymyxin B 0.75 µg/mL) is 0.044. Regarding `O=C(CC(c1cccc(O)c1)c1ccccc1Cl)NCc1ccccn1` (stereo not given), where the note is “polymyxin B 1 µg/mL”, the “bacterial growth OD600” value was 0.953. Same read-out and setting: in the case of `CCN(CCn1cccn1)C(=O)CCc1nnc(Cc2c[nH]c3ccccc23)o1` it was 0.803. As for `COc1ccc(C(CC(=O)N2CCCN(C(C)=O)CC2)c2ccccc2)cc1` (stereo not given), for the setting “polymyxin B 1 µg/mL”, the “bacterial growth OD600” value was determined as 0.801.

For `CC(=O)NCC(=O)NC(C)c1cnc(N(C)C2CCCCC2)nc1C` (stereo not given), the “bacterial growth OD600” value (polymyxin B 1 µg/mL) worked out at 0.924. The same measure, in the same setting: the result for `O=C(/C=C/c1ccco1)NC1CCCN(CCc2ccccc2)C1` (stereo not given) reads 0.88; that for `CCOC(=O)N1CCN(C2CCCN(C/C(C)=C/c3ccco3)C2)CC1` (stereo not given), 1.21. The same measure, in the same setting: the result for `CCOC(=O)C1(CCOc2ccccc2)CCCN(C(=O)c2ccc(CN(C)C)o2)C1` (stereo not given) reads 0.985; that for `COc1ccccc1OCC(=O)NCC1CCCN(Cc2csc(C(C)=O)c2)C1` (stereo not given), 0.961. On the same count and under the same terms, the result for `CCN(CCn1cccn1)C(=O)C1CCC(=O)N(CCCN2CCOCC2)C1` (stereo not given) reads 0.817. As to `Cc1ccccc1-c1cc2c(c(OCC3CCOC3)c1)OCCN(Cc1cccc3cccnc13)C2` (stereo not given), the “bacterial growth OD600” value (polymyxin B 0.75 µg/mL) came out at 0.002.

As to `COC(=O)C1CCCCN1Cc1cnc(S(=O)(=O)Cc2ccccc2)n1CC(C)C` (stereo not given), under “polymyxin B 1 µg/mL”, the “bacterial growth OD600” value amounted to 0.042. Same read-out and setting: the result for `O=C(NCC1(c2ccccc2)CCCC1)C1CCC(=O)N(Cc2ccccn2)C1` (stereo not given) reads 1.11. Take `COc1cc(CN2CCC(C(Cc3ccccc3Cl)N(C)C(=O)c3ccco3)CC2)ccc1F` (stereo not given): the “bacterial growth OD600” value (polymyxin B 0.75 µg/mL) was found to be 0.722. As for `Cn1cc(CN2CCN(C(=O)c3cccs3)CC2)c(-c2ccc3c(c2)OCCO3)n1`, under “polymyxin B 1 µg/mL”, the “bacterial growth OD600” value came out at 0.742.
